Data reported in US20170051112A1, “RESIN COMPOSITION SUITABLE FOR PRINTING AND PRINTING METHOD UTILIZING THE SAME” (MONTANUNIVERSITÄT LEOBEN, priority 2014, published 2017).

Test: Reaction kinetics / residual monomer content by real-time FTIR spectroscopy
Details: content of alkyne or alkene after a reaction time of 2 min of irradiation; 5 wt.-% photoinitiator; alkynes with TMPMP

SMILES	Residual monomer content [%]
C=CC(=O)OCCCCOC(=O)C=C [1,4-butanediol diacrylate, reference compound]	21
CCC#COCCCCOC#CCC [1,4-butanediol dibut-1-ynyl ether]	<1
C=C(C)C(=O)OCCCCOC(=O)C(=C)C [1,4-butanediol dimethacrylate, reference compound]	26
C#CCOCCCCOCC#C [1,4-butanediol dipropargyl ether]	2
CCC#COCCOC(COCC)OC#CCC (centres unmarked) [1,4-triethyleneglycol dibut-1-ynyl ether]	<1
